Drawing on article PMC12325761, this text covers binding for two substances.

Protein sequences, listed by entry. Tags and fused reporters are not part of them.
UniProt P46937: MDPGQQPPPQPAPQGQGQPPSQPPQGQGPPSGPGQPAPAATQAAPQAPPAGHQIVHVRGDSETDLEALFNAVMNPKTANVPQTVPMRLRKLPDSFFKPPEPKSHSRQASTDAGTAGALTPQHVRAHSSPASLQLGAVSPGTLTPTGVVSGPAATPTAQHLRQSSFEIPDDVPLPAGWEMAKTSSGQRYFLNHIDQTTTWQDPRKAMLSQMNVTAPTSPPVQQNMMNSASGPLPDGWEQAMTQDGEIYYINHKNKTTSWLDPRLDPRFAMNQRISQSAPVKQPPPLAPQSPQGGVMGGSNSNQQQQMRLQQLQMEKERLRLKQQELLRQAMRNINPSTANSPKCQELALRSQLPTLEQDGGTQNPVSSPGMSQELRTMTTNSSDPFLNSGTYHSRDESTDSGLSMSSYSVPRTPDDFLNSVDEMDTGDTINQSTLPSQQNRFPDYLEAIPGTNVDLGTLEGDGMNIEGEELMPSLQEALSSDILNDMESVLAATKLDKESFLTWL
UniProt Q13523: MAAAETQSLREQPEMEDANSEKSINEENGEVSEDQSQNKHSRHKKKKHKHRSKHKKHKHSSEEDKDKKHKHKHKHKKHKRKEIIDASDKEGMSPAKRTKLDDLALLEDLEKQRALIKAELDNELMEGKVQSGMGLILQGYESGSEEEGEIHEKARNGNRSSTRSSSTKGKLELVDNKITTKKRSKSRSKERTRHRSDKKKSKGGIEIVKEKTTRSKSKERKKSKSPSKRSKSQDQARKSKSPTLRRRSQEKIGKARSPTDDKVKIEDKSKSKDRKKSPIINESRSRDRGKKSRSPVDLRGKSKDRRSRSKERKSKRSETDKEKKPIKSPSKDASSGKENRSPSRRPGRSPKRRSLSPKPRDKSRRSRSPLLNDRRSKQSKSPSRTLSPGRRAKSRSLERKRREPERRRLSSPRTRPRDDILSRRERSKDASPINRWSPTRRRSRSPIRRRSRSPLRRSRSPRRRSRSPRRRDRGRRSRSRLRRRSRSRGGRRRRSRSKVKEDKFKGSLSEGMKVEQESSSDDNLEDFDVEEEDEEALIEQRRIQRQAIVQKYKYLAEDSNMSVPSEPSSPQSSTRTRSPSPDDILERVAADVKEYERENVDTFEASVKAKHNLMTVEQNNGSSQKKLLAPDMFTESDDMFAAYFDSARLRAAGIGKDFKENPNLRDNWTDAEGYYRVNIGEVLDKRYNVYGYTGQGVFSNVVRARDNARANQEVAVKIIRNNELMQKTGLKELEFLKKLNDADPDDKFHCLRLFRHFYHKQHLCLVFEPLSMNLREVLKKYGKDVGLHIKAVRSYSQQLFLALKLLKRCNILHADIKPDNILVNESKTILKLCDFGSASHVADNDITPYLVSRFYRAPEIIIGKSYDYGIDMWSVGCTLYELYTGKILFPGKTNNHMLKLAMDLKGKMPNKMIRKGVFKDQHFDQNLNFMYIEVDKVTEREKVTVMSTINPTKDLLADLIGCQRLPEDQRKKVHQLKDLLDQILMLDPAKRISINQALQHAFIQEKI

Assay [1] concerns the target ectopic YAP of the co-IP of Fig. 4e (UniProt P46937). Briefly: condition: only in cells with GNAQ R183Q, Q209P or Q209L, or GNA11 Q209L; co-IP; Fig. 4e, f upper: ectopic YAP with endogenous PRP4K in cells with GNAQ R183Q, Q209P or Q209L or GNA11 Q209L.
For assay [2] the target is unchanged. Description: co-IP; Fig. 4e, f upper: ectopic YAP with endogenous PRP4K; also with knock-down of endogenous GNAQ wt and GNA11 wt (interaction attenuated).
Assay [3] has as its target PRP4K as precipitated in the co-IP of Fig. 4b (human) (UniProt Q13523). Briefly: co-IP; Fig. 4b: PRP4K precipitated; endogenous YAP and ectopic ORF blotted.

No constants are given. Whether binding was seen depends on the method and setting. Binding seen in cells or lysates may run through a third protein. Some entries that bind do so weakly or less than the wild type.

As for “endogenous PRP4K (from UniProt Q13523 1-1007) (enzyme)”, the binding entry is given as “no binding” in assay [1] and “binds” in assay [2].

Regarding “endogenous YAP (from UniProt P46937 1-504)”, the binding result in assay [3] is “binds”.
